Construct, isoform or probe ends are uncertain for at least one entry. At least one verdict was read from the data and is not stated in words by the source.
Key:
[1] = system: LoPARP2 (Lathyrus oleraceus 'Blauwschokker'); test: EMSA; settings: robust binding to 5'P blunt end; 5'-phosphate; EMSA: 50 mM HEPES pH 8, 100 mM NaCl, 10% glycerol, 10 mM DTT, 45 min at 4 °C, 7% native PAGE 0.5x TBE; recombinant protein; protein details: His; folded or branched DNA
hPARP2 (Homo sapiens) = hPARP2 (Homo sapiens) (UniProt Q9UGN5); test: EMSA; settings: robust binding to 5'P blunt end; 5'-phosphate; EMSA: 50 mM HEPES pH 8, 100 mM NaCl, 10% glycerol, 10 mM DTT, 45 min at 4 °C, 7% native PAGE 0.5x TBE; recombinant protein; protein details: His; folded or branched DNA

By UniProt entry, the sequences of proteins in these tests, tags left out. Where a name states a change or a piece, a line headed by the entry shows the natural chain unless it says otherwise.
UniProt Q9UGN5: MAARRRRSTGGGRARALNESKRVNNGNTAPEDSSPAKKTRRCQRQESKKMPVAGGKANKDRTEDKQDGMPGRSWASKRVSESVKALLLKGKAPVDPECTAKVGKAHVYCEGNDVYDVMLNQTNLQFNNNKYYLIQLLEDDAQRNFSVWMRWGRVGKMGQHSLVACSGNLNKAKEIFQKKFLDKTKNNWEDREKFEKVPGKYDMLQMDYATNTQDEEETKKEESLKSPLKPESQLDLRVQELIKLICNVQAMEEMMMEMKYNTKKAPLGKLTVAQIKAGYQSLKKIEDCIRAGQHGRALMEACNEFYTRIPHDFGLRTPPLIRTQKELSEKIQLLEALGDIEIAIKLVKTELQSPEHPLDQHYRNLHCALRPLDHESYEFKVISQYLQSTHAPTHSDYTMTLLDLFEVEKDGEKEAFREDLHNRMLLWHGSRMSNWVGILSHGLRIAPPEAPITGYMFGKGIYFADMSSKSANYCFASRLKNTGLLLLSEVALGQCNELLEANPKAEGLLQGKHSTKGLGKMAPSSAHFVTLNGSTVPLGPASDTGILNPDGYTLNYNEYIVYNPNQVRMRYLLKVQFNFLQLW

GGAAGTTCTTTTGAACTTCC [DNA-5 (5'P blunt)]
binding result [1]: binds
binding result (hPARP2 (Homo sapiens)): binds
